Measured values: paper PMC11790910
These are yes or no findings as the source states them, for the method shown. In cells and extracts the contact can be indirect. A yes stands for co-enrichment or nearness to the bait. Other partners may have been found. Where a sequence is shown, tags or fusion partners need not be part of it.

Target: T1, DENR-3×FLAG-NeonGreen-dTAG (endogenously tagged DENR) (mouse (endogenous in NIH/3T3)) (UniProt Q9CQJ6)
T1 sequence: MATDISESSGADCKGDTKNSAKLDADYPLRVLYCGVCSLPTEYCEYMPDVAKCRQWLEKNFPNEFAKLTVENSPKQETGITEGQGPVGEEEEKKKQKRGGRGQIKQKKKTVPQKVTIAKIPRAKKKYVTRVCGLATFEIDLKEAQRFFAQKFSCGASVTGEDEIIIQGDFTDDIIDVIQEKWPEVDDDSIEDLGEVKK
Assay: affinity purification with mass spectrometry; FLAG-IP on anti-FLAG magnetic beads from extracts of NIH/3T3 DENR-3×FLAG-NeonGreen-dTAG cells, control-treated vs. treated with 500 nM dTAG-13 for 5 h; IP buffer 50 mM Tris-HCl pH 7.5, 120 mM NaCl, 1% NP-40, 10 mM MgCl2; 4 °C, 3 h; triplicates

- binding: binds
B1: MCTS2 (protein, UniProt Q9CQ21 1-181)
chain: MFKKFDEKESVSNCIQLKTSVIKGIKSQLTEQFPGIEPWLNQIMPKKDPVKIVRCHEHMEILTVNGELLFFRQRKGPFYPTLRLLHKYPFILPHQQVDKGAIKFVLSGANIMCPGLTSPGAKLYTAAVDTIVAVMAEGKEHALCVGVMKMAAADIEKINKGIGIENIHYLNDGLWHMKTYK
